# B1: Podocalyxin (protein, UniProt O00592 23-558, looked up)
# Podocalyxin: SPSPSPSPSQNATQTTTDSSNKTAPTPASSVTIMATDTAQQSTVPTSKANEILASVKATTLGVSSDSPGTTTLAQQVSGPVNTTVARGGGSGNPTTTIESPKSTKSADTTTVATSTATAKPNTTSSQNGAEDTTNSGGKSSHSVTTDLTSTKAEHLTTPHPTSPLSPRQPTSTHPVATPTSSGHDHLMKISSSSSTVAIPGYTFTSPGMTTTLLETVFHHVSQAGLELLTSGDLPTLASQSAGITASSVISQRTQQTSSQMPASSTAPSSQETVQPTSPATALRTPTLPETMSSSPTAASTTHRYPKTPSPTVAHESNWAKCEDLETQTQSEKQLVLNLTGNTLCAGGASDEKLISLICRAVKATFNPAQDKCGIRLASVPGSQTVVVKEITIHTKLPAKDVYERLKDKWDELKEAGVSDMKLGDQGPPEEAEDRFSMPLIITIVCMASFLLLVAALYGCCHQRLSQRKDQQRLTEELQTVENGYHDNPTLEVMETSSEMQEKKVVSLNGELGDSWIVPLDNLTKDDLDEEEDTHL
# Tested on: human endometrial epithelial cells (HEECs)
# Assay: LC-MS/MS analysis of plasma membrane-enriched proteins of HEECs
molecule,measurement,setting,value
B1,"Total unique peptides, Samples 1","sample 1, proliferative phase",1
same,"Total unique peptides, Samples 2","sample 2, proliferative phase",1
same,"Total unique peptides, Samples 3","sample 3, proliferative phase",3

# Reference: patent publication US20220268780A1, “METHODS OF PREDICTING ENDOMETRIAL RECEPTIVITY” (HUDSON INSTITUTE OF MEDICAL RESEARCH, priority 2019, published 2022)
